Laboratory results: the supplement of paper PMC10849652
Some of the results follow.

Amino acid sequences for entries named in this document (tags omitted). A change or cut given only in a name is not applied to a line headed by its entry.
UniProt Q6DHV7: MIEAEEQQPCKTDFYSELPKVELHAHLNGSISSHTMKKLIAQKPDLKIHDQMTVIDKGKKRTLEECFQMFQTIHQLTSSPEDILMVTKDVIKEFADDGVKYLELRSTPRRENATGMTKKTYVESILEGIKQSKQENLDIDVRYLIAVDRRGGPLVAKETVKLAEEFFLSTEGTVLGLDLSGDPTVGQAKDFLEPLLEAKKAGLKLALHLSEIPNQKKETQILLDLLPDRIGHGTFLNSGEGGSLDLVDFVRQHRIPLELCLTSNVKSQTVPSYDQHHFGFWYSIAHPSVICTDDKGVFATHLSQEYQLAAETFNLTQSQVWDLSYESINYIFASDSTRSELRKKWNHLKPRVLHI
UniProt P07311: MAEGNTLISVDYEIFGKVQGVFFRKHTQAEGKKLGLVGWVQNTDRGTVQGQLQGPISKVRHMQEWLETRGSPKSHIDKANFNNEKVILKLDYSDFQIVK
UniProt Q9ULC5: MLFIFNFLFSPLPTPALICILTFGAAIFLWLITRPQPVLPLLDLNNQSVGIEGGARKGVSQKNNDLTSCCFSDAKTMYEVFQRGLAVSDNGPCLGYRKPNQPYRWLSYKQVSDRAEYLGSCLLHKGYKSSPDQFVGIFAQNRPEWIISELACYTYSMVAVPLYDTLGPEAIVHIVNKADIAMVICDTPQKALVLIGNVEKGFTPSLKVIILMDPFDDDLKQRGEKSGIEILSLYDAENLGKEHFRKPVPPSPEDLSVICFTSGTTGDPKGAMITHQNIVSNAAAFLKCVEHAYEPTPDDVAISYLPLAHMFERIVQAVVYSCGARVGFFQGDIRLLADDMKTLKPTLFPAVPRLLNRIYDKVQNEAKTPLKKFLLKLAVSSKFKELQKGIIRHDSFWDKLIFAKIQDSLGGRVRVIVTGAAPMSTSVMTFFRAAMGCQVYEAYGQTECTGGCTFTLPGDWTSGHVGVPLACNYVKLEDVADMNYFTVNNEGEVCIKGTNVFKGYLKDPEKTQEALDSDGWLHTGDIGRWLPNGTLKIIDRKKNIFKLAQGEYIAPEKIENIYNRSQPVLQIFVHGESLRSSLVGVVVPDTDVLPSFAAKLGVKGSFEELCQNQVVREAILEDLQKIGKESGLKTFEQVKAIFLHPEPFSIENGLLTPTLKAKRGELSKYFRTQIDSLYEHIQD
UniProt Q9NUQ2: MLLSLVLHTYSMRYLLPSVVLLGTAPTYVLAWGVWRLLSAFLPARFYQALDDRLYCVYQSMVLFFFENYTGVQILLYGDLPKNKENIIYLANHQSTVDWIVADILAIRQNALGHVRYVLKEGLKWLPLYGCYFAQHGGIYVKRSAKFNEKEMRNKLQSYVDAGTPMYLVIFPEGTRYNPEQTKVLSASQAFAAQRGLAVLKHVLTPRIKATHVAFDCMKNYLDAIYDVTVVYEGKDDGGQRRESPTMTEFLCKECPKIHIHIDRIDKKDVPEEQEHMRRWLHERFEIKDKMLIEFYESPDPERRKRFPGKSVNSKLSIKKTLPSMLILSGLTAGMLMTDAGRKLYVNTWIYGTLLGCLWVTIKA
UniProt Q8WV93: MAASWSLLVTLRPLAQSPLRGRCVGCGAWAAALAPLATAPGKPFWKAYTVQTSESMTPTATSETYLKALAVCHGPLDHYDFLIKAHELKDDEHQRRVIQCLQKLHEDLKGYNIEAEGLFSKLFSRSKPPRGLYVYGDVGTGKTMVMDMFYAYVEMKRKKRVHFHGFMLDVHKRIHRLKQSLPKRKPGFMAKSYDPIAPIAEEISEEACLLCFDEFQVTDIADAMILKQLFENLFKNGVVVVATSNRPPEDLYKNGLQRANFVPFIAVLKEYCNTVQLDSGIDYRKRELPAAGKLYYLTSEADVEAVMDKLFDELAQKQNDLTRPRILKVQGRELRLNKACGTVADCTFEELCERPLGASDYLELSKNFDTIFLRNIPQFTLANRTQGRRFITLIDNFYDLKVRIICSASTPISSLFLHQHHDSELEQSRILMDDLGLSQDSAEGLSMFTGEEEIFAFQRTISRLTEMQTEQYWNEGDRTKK
UniProt Q6ZN18: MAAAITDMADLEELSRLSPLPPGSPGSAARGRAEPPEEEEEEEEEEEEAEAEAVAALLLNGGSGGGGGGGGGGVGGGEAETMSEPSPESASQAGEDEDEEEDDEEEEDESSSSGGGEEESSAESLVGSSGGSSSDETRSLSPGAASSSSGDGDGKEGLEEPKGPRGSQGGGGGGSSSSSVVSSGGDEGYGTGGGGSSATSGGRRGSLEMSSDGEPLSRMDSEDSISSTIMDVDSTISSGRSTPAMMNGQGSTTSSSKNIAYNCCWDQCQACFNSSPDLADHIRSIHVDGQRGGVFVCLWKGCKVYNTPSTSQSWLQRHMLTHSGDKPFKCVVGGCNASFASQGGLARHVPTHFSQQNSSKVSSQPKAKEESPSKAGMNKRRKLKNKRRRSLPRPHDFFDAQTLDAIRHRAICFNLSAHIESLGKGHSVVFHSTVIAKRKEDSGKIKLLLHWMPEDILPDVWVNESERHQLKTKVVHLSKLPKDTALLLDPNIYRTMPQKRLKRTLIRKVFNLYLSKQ
UniProt Q86TW2: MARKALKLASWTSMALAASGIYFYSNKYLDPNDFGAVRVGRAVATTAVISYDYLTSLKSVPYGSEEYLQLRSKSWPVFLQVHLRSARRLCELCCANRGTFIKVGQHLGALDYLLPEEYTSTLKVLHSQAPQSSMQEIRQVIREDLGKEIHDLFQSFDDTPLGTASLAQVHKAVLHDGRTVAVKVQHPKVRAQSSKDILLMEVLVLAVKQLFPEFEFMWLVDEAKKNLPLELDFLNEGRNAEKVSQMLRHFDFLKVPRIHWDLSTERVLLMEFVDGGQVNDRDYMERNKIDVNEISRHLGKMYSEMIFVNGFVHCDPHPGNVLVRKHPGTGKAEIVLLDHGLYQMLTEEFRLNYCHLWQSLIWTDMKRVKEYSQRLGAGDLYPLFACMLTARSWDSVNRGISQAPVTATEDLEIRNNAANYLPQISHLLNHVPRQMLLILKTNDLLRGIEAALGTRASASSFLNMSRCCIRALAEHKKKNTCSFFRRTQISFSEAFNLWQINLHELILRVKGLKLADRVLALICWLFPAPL
UniProt P20933: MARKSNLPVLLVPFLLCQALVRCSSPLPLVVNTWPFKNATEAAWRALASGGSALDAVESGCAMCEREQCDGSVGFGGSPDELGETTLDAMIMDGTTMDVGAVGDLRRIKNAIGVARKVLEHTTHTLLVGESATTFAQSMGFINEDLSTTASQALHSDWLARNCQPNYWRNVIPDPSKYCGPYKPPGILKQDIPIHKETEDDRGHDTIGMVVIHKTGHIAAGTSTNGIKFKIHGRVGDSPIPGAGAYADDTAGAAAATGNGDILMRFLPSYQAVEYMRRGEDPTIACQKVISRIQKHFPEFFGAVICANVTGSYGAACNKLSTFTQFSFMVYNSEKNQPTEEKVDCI
UniProt Q9NZD4: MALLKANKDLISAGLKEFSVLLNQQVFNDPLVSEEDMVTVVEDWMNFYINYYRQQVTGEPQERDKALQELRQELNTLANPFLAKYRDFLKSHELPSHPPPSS
UniProt Q8NHP1: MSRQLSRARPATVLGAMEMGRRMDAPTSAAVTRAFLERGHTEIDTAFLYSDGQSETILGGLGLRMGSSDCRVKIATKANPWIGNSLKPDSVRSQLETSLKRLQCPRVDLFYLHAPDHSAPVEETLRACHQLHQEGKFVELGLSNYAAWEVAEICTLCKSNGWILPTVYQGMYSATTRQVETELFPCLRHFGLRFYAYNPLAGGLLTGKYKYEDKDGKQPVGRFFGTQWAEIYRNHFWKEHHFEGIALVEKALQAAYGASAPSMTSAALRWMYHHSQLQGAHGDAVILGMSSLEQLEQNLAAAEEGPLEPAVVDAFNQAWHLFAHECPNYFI
UniProt Q86V24: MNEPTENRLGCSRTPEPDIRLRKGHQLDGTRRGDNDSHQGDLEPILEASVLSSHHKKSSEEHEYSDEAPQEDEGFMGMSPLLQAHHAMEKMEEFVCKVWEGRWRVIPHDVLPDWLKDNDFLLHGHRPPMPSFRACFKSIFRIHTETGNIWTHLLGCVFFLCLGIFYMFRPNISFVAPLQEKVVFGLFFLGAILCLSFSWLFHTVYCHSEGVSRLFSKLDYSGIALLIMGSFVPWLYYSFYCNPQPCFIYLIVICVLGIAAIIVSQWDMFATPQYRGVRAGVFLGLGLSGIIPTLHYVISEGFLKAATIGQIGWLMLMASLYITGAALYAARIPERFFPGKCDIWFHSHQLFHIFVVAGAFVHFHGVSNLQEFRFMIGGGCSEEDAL
UniProt Q13155: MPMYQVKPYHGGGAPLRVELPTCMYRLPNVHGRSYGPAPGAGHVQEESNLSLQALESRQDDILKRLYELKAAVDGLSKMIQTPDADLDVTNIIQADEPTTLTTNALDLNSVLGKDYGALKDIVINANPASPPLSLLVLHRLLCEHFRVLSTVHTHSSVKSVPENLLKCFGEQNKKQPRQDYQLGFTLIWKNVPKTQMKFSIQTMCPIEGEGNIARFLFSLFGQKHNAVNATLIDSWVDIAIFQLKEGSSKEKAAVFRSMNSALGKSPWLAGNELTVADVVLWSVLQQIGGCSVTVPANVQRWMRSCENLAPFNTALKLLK
UniProt Q6RW13: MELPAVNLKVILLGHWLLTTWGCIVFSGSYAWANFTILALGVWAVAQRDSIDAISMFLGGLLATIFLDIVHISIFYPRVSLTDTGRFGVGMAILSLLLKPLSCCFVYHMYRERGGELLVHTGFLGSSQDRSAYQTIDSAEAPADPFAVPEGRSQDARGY
UniProt Q02040: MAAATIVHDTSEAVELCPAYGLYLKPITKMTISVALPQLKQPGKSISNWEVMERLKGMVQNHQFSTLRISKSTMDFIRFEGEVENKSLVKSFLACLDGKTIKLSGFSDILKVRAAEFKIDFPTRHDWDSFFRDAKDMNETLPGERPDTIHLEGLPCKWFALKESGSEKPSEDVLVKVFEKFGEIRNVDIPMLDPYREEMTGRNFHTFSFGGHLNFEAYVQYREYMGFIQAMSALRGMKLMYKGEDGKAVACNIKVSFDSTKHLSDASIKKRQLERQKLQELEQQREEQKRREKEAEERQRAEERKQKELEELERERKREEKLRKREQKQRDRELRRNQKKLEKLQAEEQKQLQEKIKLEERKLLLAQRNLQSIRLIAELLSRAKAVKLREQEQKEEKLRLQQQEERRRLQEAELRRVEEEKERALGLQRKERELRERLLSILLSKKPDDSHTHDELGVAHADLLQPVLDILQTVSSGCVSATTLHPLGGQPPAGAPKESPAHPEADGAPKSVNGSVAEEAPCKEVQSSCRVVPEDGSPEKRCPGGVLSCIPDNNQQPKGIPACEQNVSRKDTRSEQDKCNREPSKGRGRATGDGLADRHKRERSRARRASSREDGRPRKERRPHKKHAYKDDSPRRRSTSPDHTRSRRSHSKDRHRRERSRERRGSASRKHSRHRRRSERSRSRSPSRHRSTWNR
UniProt P13686: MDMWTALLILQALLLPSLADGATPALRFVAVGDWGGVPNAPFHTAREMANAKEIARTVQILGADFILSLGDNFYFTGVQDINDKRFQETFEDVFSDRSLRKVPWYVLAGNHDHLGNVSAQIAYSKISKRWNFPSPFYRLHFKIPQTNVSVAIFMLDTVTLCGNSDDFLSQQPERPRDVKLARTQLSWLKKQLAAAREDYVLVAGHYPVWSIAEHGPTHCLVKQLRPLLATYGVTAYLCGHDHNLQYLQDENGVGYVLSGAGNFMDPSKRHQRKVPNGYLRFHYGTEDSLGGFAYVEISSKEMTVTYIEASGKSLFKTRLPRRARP
UniProt O60218, whole entry, looked up: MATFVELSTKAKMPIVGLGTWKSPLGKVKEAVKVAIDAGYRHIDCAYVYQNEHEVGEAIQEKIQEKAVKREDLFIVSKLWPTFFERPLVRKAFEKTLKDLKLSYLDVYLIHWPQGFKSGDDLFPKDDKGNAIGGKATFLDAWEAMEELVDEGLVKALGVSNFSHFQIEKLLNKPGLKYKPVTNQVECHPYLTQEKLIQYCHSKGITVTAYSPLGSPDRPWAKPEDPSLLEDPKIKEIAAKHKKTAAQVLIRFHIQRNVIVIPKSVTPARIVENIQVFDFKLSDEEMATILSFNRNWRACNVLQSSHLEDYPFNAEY
UniProt Q96M93: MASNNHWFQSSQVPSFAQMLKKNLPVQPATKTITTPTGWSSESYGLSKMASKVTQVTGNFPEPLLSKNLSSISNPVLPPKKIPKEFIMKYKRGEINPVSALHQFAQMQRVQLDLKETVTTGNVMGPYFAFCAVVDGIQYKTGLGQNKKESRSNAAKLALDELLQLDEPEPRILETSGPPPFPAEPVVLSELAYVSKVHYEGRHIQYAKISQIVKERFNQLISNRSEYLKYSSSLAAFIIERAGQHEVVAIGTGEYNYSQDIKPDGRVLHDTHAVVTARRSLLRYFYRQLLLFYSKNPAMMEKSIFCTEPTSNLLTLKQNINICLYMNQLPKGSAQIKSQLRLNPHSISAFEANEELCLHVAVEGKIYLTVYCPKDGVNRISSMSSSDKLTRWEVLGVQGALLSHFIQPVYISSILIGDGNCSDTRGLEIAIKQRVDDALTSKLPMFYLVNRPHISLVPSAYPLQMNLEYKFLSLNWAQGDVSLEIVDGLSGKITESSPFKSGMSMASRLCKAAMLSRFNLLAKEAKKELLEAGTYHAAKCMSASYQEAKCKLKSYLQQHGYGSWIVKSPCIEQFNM

Experiments:
Experiment in all cases: log2 fold change, soluble protein after heating vs DMSO (PISA); higher = thermal stabilisation; K562 lysate, 10 uM; active = over 0.2 and 3.5 SD of the protein, either way, in both replicates (recomputed)
alvocidib = compound: CN1CC[C@H](c2c(O)cc(O)c3c(=O)cc(-c4ccccc4Cl)oc23)[C@H](O)C1 [alvocidib]
Procedure, shortened: (§1)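 Values give the log-two fold change in thermal stability against solvent controls, from duplicates. Crude K562 extract at 1 mg/mL protein, made by dounce homogenisation in PBS pH 7.4 with 1 mM MgCl2, was treated with 10 μM compound for 30 min. After 3 min heating across 48°C-58°C, aliquots were pooled, adjusted to 0.5% NP-40 at 4°C and centrifuged at 21,000xg for 90 min. The supernatant was measured by TMTpro 16plex LC-MS/MS with channel sums equalised.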

Tubastatin A = compound: CN1CCc2c(c3ccccc3n2Cc2ccc(C(=O)NO)cc2)C1 [Tubastatin A]
Procedure, shortened: as §1

[1] = compound: CNC(=O)C1=CC=CC=C1NC2=NC(=NC=C2Cl)NC3=C(C=C(C=C3)N4CCOCC4)OC
Procedure, shortened: as §1

defactinib = compound: CNC(=O)c1ccc(Nc2ncc(C(F)(F)F)c(NCc3nccnc3N(C)S(C)(=O)=O)n2)cc1 [defactinib]
Procedure, shortened: as §1

[2] = compound: CNc1nc(-c2ccc3c(N)n[nH]c3c2)cc(N2C[C@@H](C(=O)NC3CCCCC3)CC[C@H]2C)n1
Procedure, shortened: as §1

encorafenib = compound: COC(=O)N[C@@H](C)CNc1nccc(-c2cn(C(C)C)nc2-c2cc(Cl)cc(NS(C)(=O)=O)c2F)n1 [encorafenib]
Procedure, shortened: as §1

[3] = compound: COC(=O)[C@H](CCSC)NC(=O)C1=C(C=C(C=C1)NC[C@H](CS)N)C2=CC=CC=C2
Procedure, shortened: as §1

alisertib = compound: COc1cc(Nc2ncc3c(n2)-c2ccc(Cl)cc2C(c2c(F)cccc2OC)=NC3)ccc1C(=O)O [alisertib]
Procedure, shortened: as §1

[4] = compound: COc1cc2nc(-c3cc(F)ccc3O)nc(N[C@@H]3CNC[C@H]3C(C)(C)O)c2cc1OC
Procedure, shortened: as §1

gefitinib = compound: COc1cc2ncnc(Nc3ccc(F)c(Cl)c3)c2cc1OCCCN1CCOCC1 [gefitinib]
Procedure, shortened: as §1

Measured: log2 fold change

ADAL (UniProt Q6DHV7)
inactive: alvocidib 0.046 | Tubastatin A 0.064 | [1] 0.001 | defactinib 0.012 | [2] 0.028 | encorafenib 0.011 | [3] -0.04 | alisertib -0.025 | [4] -0.002 | gefitinib -0.007

ACTB, A0A2R8YGF8
inactive: alvocidib -0.107 | defactinib -0.304

ACYP1 (UniProt P07311)
inactive: alvocidib 0.084 | Tubastatin A 0.008 | [1] -0.002 | defactinib 0.014 | [2] -0.018 | encorafenib -0.018 | [3] -0.016 | alisertib 0.012 | [4] -0.008 | gefitinib 0.026

ACSL5 isoform 3 (UniProt Q9ULC5)
inactive: alvocidib 0.127 | Tubastatin A -0.153 | [1] -0.104 | [2] 0.078 | alisertib 0.045 | [4] -0.033 | gefitinib -0.013

AFDN (UniProt J3KN01)
inactive: alvocidib -0.053 | Tubastatin A -0.036 | [1] -0.007 | defactinib -0.061 | [2] -0.052 | encorafenib 0.061 | [3] -0.03 | alisertib 0.05 | [4] 0.017 | gefitinib -0.024

AFM (UniProt P43652)
inactive: alvocidib -0.049 | defactinib 0 | encorafenib 0.026 | [3] -0.1

ADAM17 (UniProt P78536)
inactive: alvocidib -0.066 | Tubastatin A 0.063 | [1] 0.011 | defactinib 0.005 | [2] 0.04 | encorafenib 0.09 | [3] 0.109 | alisertib -0.048 | gefitinib 0.031

AGL (UniProt P35573)
inactive: alvocidib 0.046 | Tubastatin A -0.099 | [1] 0.014 | defactinib 0.024 | [2] -0.002 | encorafenib 0.008 | [3] 0.178 | alisertib -0.004 | [4] -0.012 | gefitinib -0.007

AGAP1 (UniProt Q9UPQ3)
inactive: alvocidib -0.009 | Tubastatin A -0.086 | [1] 0.045 | defactinib -0.038 | [2] 0.083 | alisertib -0.025 | [4] 0.002 | gefitinib 0.063

AGPAT5 (UniProt Q9NUQ2)
inactive: alvocidib 0.081 | Tubastatin A 0.016 | [1] -0.065 | defactinib 0 | [2] -0.015 | encorafenib -0.004 | [3] 0.006 | alisertib -0.024 | [4] -0.074 | gefitinib -0.025

AGO3 (UniProt Q9H9G7)
inactive: alvocidib -0.005 | Tubastatin A 0.046 | [1] -0.011 | defactinib -0.01 | [2] 0.052 | encorafenib 0.012 | [3] -0.024 | alisertib -0.016 | [4] 0.021 | gefitinib 0.043

ACTB (UniProt C9JUM1)
inactive: alisertib -0.057 | [4] 0.05 | gefitinib -0.294

ACTR8 (UniProt Q9H981)
inactive: Tubastatin A -0.346 | [1] 0.087 | [2] 0.007 | encorafenib -0.238 | [3] 0.239 | alisertib 0.066 | [4] -0.002 | gefitinib 0.295

AFG1L (UniProt Q8WV93)
inactive: Tubastatin A -0.112 | [1] -0.02 | [2] 0.015 | encorafenib -0.274 | [3] 0.154 | alisertib -0.01 | [4] 0.026 | gefitinib 0.073

AEBP2 (UniProt Q6ZN18)
inactive: Tubastatin A -0.074 | [1] -0.038 | [2] 0.073 | [4] 0.017

ADCK1 (UniProt Q86TW2)
inactive: alvocidib 0.053 | defactinib -0.089 | encorafenib -0.432 | [3] 0.041

ADK, A0A5F9ZH76
inactive: alisertib 0.008 | [4] -0.063 | gefitinib 0.072

AGA (UniProt P20933)
inactive: Tubastatin A -0.1 | [1] -0.136 | defactinib -0.102 | encorafenib 0.099 | [3] -0.11 | [4] 0.011

AK5 (UniProt Q9Y6K8)
inactive: Tubastatin A -0.018 | [1] 0.067 | defactinib -0.014 | [2] 0.079 | encorafenib -0.002 | [3] -0.055 | alisertib 0.024 | [4] -0.025 | gefitinib 0.019

ADCK5 (UniProt Q3MIX3)
inactive: [2] 0.127 | encorafenib 0.047 | [3] 0.114 | alisertib -0.062 | [4] 0.022 | gefitinib -0.051

2 neighbouring records already listed:
ACTB (UniProt C9JUM1)
inactive: alisertib -0.057 | [4] 0.05 | gefitinib -0.294

ACTR8 (UniProt Q9H981)
inactive: Tubastatin A -0.346 | [1] 0.087 | [2] 0.007 | encorafenib -0.238 | [3] 0.239 | alisertib 0.066 | [4] -0.002 | gefitinib 0.295

Next part

ACVR2B (UniProt Q13705)
inactive: [1] 0.068 | defactinib -0.069

AHI1 (UniProt Q8N157)
inactive: [1] 0.198 | defactinib -0.067 | encorafenib -0.049 | [3] 0.053

AGFG2 (UniProt O95081)
inactive: Tubastatin A -0.108 | [1] -0.062 | defactinib 0.119 | [2] -0.029 | encorafenib -0.024 | [3] 0 | [4] 0.127

AHSP (UniProt Q9NZD4)
inactive: alvocidib 0.29 | defactinib 0.065 | encorafenib -0.003 | [3] -0.006 | alisertib 0.015 | [4] -0.087 | gefitinib -0.163

AKAP10 (UniProt O43572)
inactive: Tubastatin A -0.3 | [1] -0.055 | [2] -0.143 | encorafenib 0.058 | [3] -0.047 | alisertib -0.074 | [4] -0.072 | gefitinib 0.429

ACVR1 (UniProt Q04771)
inactive: alvocidib 0.086 | [2] -0.056 | alisertib 0.069 | gefitinib 0.158

ADCY7 (UniProt P51828)
inactive: [1] 0.196 | [2] -0.06 | alisertib 0.002 | gefitinib -0.053

AKR7L (UniProt Q8NHP1)
inactive: [2] 0.071 | alisertib -0.08 | [4] -0.012 | gefitinib -0.116

AFAP1L1 (UniProt Q8TED9)
inactive: [1] -0.013 | [2] 0.283 | encorafenib 0.09 | [3] 0.053 | [4] 0.164

ACTN4 (UniProt H7C144)
inactive: Tubastatin A -0.014 | [2] -0.111

ADIPOR2 (UniProt Q86V24)
inactive: Tubastatin A -0.145 | [1] 0.057 | defactinib 0.115 | [2] 0.065 | encorafenib 0.001 | [3] -0.212 | alisertib -0.003 | [4] -0.058 | gefitinib -0.091

ACTB, A0A2R8YEA7
inactive: alvocidib 0.156 | defactinib 0.04 | alisertib 0 | [4] 0.044 | gefitinib 0.027

ADCY3 (UniProt O60266)
inactive: Tubastatin A -0.03 | [1] -0.01 | [2] -0.067

AIMP2 isoform 2 (UniProt Q13155)
inactive: Tubastatin A -0.038 | [4] 0.115

AGTRAP isoform 2 (UniProt Q6RW13)
inactive: alvocidib -0.104 | [4] -0.054

AJUBA (UniProt Q96IF1)
inactive: [2] 0.065

ACOX3 (UniProt O15254)
inactive: [2] 0.021 | encorafenib -0.061 | [3] 0.113

AGO2 (UniProt E5RJY2)
inactive: alvocidib -0.147 | alisertib 0.081 | [4] -0.005 | gefitinib -0.191

AKAP17A (UniProt Q02040)
inactive: Tubastatin A -0.103 | [1] -0.066 | [2] 0.186 | [4] -0.107

ACP5 (UniProt P13686)
inactive: [1] -0.487

AKR1B10 (UniProt O60218)
inactive: Tubastatin A -0.006 | [2] -0.116

ADAD1 (UniProt Q96M93)
inactive: Tubastatin A 0.072 | defactinib -0.06 | [2] -0.153 | encorafenib 0.041 | [3] -0.077 | [4] -0.02

AFDN (UniProt A8MQ02)
inactive: defactinib -0.054 | [4] 0.095

ACTG1 (UniProt K7EM38)
inactive: encorafenib -0.286 | [3] 0.142 | [4] 0.099
